Experimental data as given in article PMC5433425 (PeerJ, 2017).
This continues a long series; more values of the same kind are listed elsewhere.

Test system: E. coli AG100tet
Test: EtBr accumulation by real-time fluorometry

CC[n+]1c(-c2ccccc2)c2cc(N)ccc2c2ccc(N)cc21 [EtBr, ethidium bromide]
EtBr fluorescence (EtBr 2 µg/ml, cycle 16): 9.484 | EtBr fluorescence (EtBr 2 µg/ml, cycle 17): 9.566 | EtBr fluorescence (EtBr 2 µg/ml, cycle 18): 9.394 | EtBr fluorescence (EtBr 2 µg/ml, cycle 19): 9.44 | EtBr fluorescence (EtBr 2 µg/ml, cycle 20): 9.416 | EtBr fluorescence (EtBr 2 µg/ml, cycle 21): 9.532 | EtBr fluorescence (EtBr 2 µg/ml, cycle 22): 9.518 | EtBr fluorescence (EtBr 2 µg/ml, cycle 23): 9.556 | EtBr fluorescence (EtBr 2 µg/ml, cycle 24): 9.669 | EtBr fluorescence (EtBr 2 µg/ml, cycle 25): 9.459 | EtBr fluorescence (EtBr 2 µg/ml, cycle 26): 9.614 | EtBr fluorescence (EtBr 2 µg/ml, cycle 27): 9.534 | EtBr fluorescence (EtBr 2 µg/ml, cycle 28): 9.617 | EtBr fluorescence (EtBr 2 µg/ml, cycle 29): 9.539 | EtBr fluorescence (EtBr 2 µg/ml, cycle 30): 9.577 | EtBr fluorescence (EtBr 3 µg/ml, cycle 3): 12.4504 | EtBr fluorescence (EtBr 3 µg/ml, cycle 4): 12.8296 | EtBr fluorescence (EtBr 3 µg/ml, cycle 5): 12.8811 | EtBr fluorescence (EtBr 3 µg/ml, cycle 6): 12.9512 | EtBr fluorescence (EtBr 3 µg/ml, cycle 7): 13.0751 | EtBr fluorescence (EtBr 3 µg/ml, cycle 8): 13.1165 | EtBr fluorescence (EtBr 3 µg/ml, cycle 9): 13.268 | EtBr fluorescence (EtBr 3 µg/ml, cycle 10): 13.171 | EtBr fluorescence (EtBr 3 µg/ml, cycle 11): 13.3427 | EtBr fluorescence (EtBr 3 µg/ml, cycle 12): 13.3723 | EtBr fluorescence (EtBr 3 µg/ml, cycle 13): 13.4136 | EtBr fluorescence (EtBr 3 µg/ml, cycle 14): 13.3033 | EtBr fluorescence (EtBr 3 µg/ml, cycle 15): 13.4312 | EtBr fluorescence (EtBr 3 µg/ml, cycle 16): 13.4653 | EtBr fluorescence (EtBr 3 µg/ml, cycle 17): 13.4424 | EtBr fluorescence (EtBr 3 µg/ml, cycle 18): 13.4877 | EtBr fluorescence (EtBr 3 µg/ml, cycle 19): 13.7076 | EtBr fluorescence (EtBr 3 µg/ml, cycle 20): 13.6421 | EtBr fluorescence (EtBr 3 µg/ml, cycle 21): 13.5444 | EtBr fluorescence (EtBr 3 µg/ml, cycle 22): 13.7388 | EtBr fluorescence (EtBr 3 µg/ml, cycle 23): 13.5484 | EtBr fluorescence (EtBr 3 µg/ml, cycle 24): 13.6568 | EtBr fluorescence (EtBr 3 µg/ml, cycle 25): 13.5912 | EtBr fluorescence (EtBr 3 µg/ml, cycle 26): 13.7728 | EtBr fluorescence (EtBr 3 µg/ml, cycle 27): 13.7752 | EtBr fluorescence (EtBr 3 µg/ml, cycle 28): 13.6498 | EtBr fluorescence (EtBr 3 µg/ml, cycle 29): 13.7822 | EtBr fluorescence (EtBr 3 µg/ml, cycle 30): 13.916 | EtBr fluorescence (EtBr 4 µg/ml, cycle 1): 17.9061 | EtBr fluorescence (EtBr 4 µg/ml, cycle 2): 17.8905 | EtBr fluorescence (EtBr 4 µg/ml, cycle 3): 18.3623 | EtBr fluorescence (EtBr 4 µg/ml, cycle 4): 18.3619 | EtBr fluorescence (EtBr 4 µg/ml, cycle 5): 18.5489 | EtBr fluorescence (EtBr 4 µg/ml, cycle 6): 18.388 | EtBr fluorescence (EtBr 4 µg/ml, cycle 7): 18.8085 | EtBr fluorescence (EtBr 4 µg/ml, cycle 8): 18.7162 | EtBr fluorescence (EtBr 4 µg/ml, cycle 9): 18.9268 | EtBr fluorescence (EtBr 4 µg/ml, cycle 10): 18.8656 | EtBr fluorescence (EtBr 4 µg/ml, cycle 11): 19.0328 | EtBr fluorescence (EtBr 4 µg/ml, cycle 12): 19.0307 | EtBr fluorescence (EtBr 4 µg/ml, cycle 13): 19.0701 | EtBr fluorescence (EtBr 4 µg/ml, cycle 14): 19.0215 | EtBr fluorescence (EtBr 4 µg/ml, cycle 15): 19.2572 | EtBr fluorescence (EtBr 4 µg/ml, cycle 16): 18.9926 | EtBr fluorescence (EtBr 4 µg/ml, cycle 17): 19.2153 | EtBr fluorescence (EtBr 4 µg/ml, cycle 18): 19.3102 | EtBr fluorescence (EtBr 4 µg/ml, cycle 19): 19.3156 | EtBr fluorescence (EtBr 4 µg/ml, cycle 20): 19.4703 | EtBr fluorescence (EtBr 4 µg/ml, cycle 21): 19.3763 | EtBr fluorescence (EtBr 4 µg/ml, cycle 22): 19.4692 | EtBr fluorescence (EtBr 4 µg/ml, cycle 23): 19.4991 | EtBr fluorescence (EtBr 4 µg/ml, cycle 24): 19.424 | EtBr fluorescence (EtBr 4 µg/ml, cycle 25): 19.6 | EtBr fluorescence (EtBr 4 µg/ml, cycle 26): 19.628 | EtBr fluorescence (EtBr 4 µg/ml, cycle 27): 19.5233 | EtBr fluorescence (EtBr 4 µg/ml, cycle 28): 19.5677 | EtBr fluorescence (EtBr 4 µg/ml, cycle 29): 19.6495 | EtBr fluorescence (EtBr 4 µg/ml, cycle 30): 19.5712 | EtBr fluorescence (EtBr 5 µg/ml, cycle 1): 20.4609 | EtBr fluorescence (EtBr 5 µg/ml, cycle 2): 20.6092 | EtBr fluorescence (EtBr 5 µg/ml, cycle 3): 20.8018 | EtBr fluorescence (EtBr 5 µg/ml, cycle 4): 20.9508 | EtBr fluorescence (EtBr 5 µg/ml, cycle 5): 21.0952 | EtBr fluorescence (EtBr 5 µg/ml, cycle 6): 21.1881 | EtBr fluorescence (EtBr 5 µg/ml, cycle 7): 21.3359 | EtBr fluorescence (EtBr 5 µg/ml, cycle 8): 21.4701 | EtBr fluorescence (EtBr 5 µg/ml, cycle 9): 21.5744 | EtBr fluorescence (EtBr 5 µg/ml, cycle 10): 21.3397 | EtBr fluorescence (EtBr 5 µg/ml, cycle 11): 21.7699 | EtBr fluorescence (EtBr 5 µg/ml, cycle 12): 21.8291 | EtBr fluorescence (EtBr 5 µg/ml, cycle 13): 22.1219 | EtBr fluorescence (EtBr 5 µg/ml, cycle 14): 21.7965 | EtBr fluorescence (EtBr 5 µg/ml, cycle 15): 22.0119 | EtBr fluorescence (EtBr 5 µg/ml, cycle 16): 21.6498 | EtBr fluorescence (EtBr 5 µg/ml, cycle 17): 22.1598 | EtBr fluorescence (EtBr 5 µg/ml, cycle 18): 22.0116 | EtBr fluorescence (EtBr 5 µg/ml, cycle 19): 21.9197 | EtBr fluorescence (EtBr 5 µg/ml, cycle 20): 22.0952 | EtBr fluorescence (EtBr 5 µg/ml, cycle 21): 22.2888 | EtBr fluorescence (EtBr 5 µg/ml, cycle 22): 22.4138 | EtBr fluorescence (EtBr 5 µg/ml, cycle 23): 22.4435 | EtBr fluorescence (EtBr 5 µg/ml, cycle 24): 22.4842 | EtBr fluorescence (EtBr 5 µg/ml, cycle 25): 22.2992 | EtBr fluorescence (EtBr 5 µg/ml, cycle 26): 22.463 | EtBr fluorescence (EtBr 5 µg/ml, cycle 27): 22.6635 | EtBr fluorescence (EtBr 5 µg/ml, cycle 28): 22.6764 | EtBr fluorescence (EtBr 5 µg/ml, cycle 29): 22.5346 | EtBr fluorescence (EtBr 5 µg/ml, cycle 30): 22.7483
